{"source": "patent US20090042781A1", "about": "“Methods for Treating Diabetes” (Novo Nordisk A/S, priority 2004, published 2009)", "origin": "cited, not measured here", "settings": "administered by gastric gavage", "note": "At least one structure is not confirmed: it was looked up by name or label, or the drawing left a doubt.", "data": [{"smiles": "COc1ccc2[nH]c([S+]([O-])Cc3ncc(C)c(OC)c3C)nc2c1", "note": "(stereo not shown) [omeprazole]", "values": [{"measurement": "serum gastrin level", "value": "increase"}]}]}
